The assay concerns the target FXR1 (fragile X-related protein 1) (human (endogenous in HeyA8)) (UniProt P51114). Nature of the assay: co-IP.

Amino acid sequences for entries named in this document (tags omitted).
UniProt P51114: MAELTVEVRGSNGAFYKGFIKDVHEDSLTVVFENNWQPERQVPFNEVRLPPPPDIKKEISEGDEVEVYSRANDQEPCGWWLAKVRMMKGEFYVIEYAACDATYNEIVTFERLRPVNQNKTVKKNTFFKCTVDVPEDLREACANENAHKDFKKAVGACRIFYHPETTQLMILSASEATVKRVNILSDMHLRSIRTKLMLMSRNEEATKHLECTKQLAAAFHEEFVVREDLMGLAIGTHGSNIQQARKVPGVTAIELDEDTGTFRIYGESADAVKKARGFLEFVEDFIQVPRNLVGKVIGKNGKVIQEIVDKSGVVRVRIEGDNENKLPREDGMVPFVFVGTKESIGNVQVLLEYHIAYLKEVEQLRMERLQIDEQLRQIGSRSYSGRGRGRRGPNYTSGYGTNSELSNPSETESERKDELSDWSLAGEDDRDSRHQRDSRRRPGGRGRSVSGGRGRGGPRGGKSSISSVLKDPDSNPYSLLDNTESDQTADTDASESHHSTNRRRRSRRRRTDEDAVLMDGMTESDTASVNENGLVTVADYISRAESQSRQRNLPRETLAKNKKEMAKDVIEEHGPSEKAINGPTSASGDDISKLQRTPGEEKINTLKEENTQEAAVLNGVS
UniProt P60842: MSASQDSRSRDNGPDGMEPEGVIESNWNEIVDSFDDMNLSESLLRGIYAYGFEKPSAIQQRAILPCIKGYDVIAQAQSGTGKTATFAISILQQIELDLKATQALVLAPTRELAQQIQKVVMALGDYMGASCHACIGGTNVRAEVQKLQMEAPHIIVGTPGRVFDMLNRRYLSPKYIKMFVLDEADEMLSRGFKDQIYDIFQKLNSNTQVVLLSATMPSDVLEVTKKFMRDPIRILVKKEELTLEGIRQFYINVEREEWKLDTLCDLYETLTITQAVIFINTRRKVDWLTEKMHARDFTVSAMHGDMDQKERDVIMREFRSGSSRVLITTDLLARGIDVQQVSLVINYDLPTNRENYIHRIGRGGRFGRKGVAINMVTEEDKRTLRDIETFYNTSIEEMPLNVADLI
UniProt P06730: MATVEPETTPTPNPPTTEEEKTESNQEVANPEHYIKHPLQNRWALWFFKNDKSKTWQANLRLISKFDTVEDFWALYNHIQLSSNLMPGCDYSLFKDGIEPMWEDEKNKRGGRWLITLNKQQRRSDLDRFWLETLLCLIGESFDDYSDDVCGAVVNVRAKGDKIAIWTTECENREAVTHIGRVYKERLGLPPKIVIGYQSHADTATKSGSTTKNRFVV

Results are given in words; binding and its absence hold for the method and conditions named. Binding seen in cells or lysates may run through a third protein. Some binding calls cover weakened binding; strength is not graded here.

As for eIF4A1 (from UniProt P60842 1-406), the binding entry is “binds”.

Regarding eIF4E (from UniProt P06730 1-217), the binding entry is recorded as “binds”.

These data come from paper doi:10.1101/2020.07.19.210252.
